Test results as given in the supplement of paper PMC8326762, “A Small Molecule Inhibitor of Pex3–Pex19 Interaction Disrupts Glycosome Biogenesis and Causes Lethality in Trypanosoma brucei” (Frontiers in Cell and Developmental Biology, 2021).
Several values for one entry are separate records, joined by “and”; a condition that tells them apart may be missing. Equal entries are not always repeated. Structures can show the parent of a compound that is named as a salt. The list shows a part of the results. This is a noisy data set.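 Optical density at 600 nm measured yeast growth. Because the two-hybrid strains grew without histidine, growth required Pex3–Pex19 binding. Trypanosome selectivity meant a compound inhibited the trypanosome-pair strain's growth by more than 65% but the human-pair strain's by less than 65%.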

The molecules below were run on T. brucei Pex3-Pex19 interaction (yeast two-hybrid) (assay: growth inhibition of yeast two-hybrid strain reporting TbPex3-TbPex19 interaction, relative to DMSO; higher = stronger inhibition of T. brucei Pex3-Pex19 interaction / growth). Conditions: 100 µM; 24 h.

Row | Compound | growth inhibition
1 | CN1Cc2sccc2C(c2ccc(O)c(O)c2)C1 (centres undefined) | 55.2%
2 | NCCCCN [Putrescine dihydrochloride] | 62.5%
3 | Cc1cccc(C)c1OCC(C)N (centres undefined) [Mexiletene hydrochloride] | 64.2%
4 | OCCN1CCN(CCCN2c3ccccc3Sc3ccc(Cl)cc32)CC1 [Perphenazine] | 48.7%
5 | CC(C)Cc1ccc([C@H](C)C(=O)O)cc1 [S(+)-Ibuprofen] | 81.7%
6 | CC(=O)OC[C@H]1O[C@@H]([S-])[C@H](OC(C)=O)[C@@H](OC(C)=O)[C@@H]1OC(C)=O.CCP(CC)CC.[Au+] [Auranofin] | 33.2%
7 | CC1CCN=C(N)S1 (racemic) [(±)-AMT hydrochloride] | 34.6%
8 | COc1ccc(/C=C/C(=O)Nc2ccccc2C(=O)O)cc1OC [Tranilast] | 18.2%
9 | CN(C)c1nc(N)c(C(=O)NC(=N)N)nc1Cl [5-(N,N-Dimethyl)amiloride hydrochloride] | 63.3%
10 | CC[N+](C)(C)c1cccc(O)c1 [Edrophonium chloride] | 58.5%
11 | CCCCCCCCCCCCCCCCCCOCC(COP(=O)([O-])OCC[N+](C)(C)C)OC (centres undefined) | 80.2%
12 | CNCCC(Oc1ccc(C(F)(F)F)cc1)c1ccccc1 (centres undefined) [Fluoxetine hydrochloride] | 19.3%
13 | O=C1NC(=O)C(c2ccccc2)(c2ccccc2)N1 [5,5-Diphenylhydantoin] | 69.3%
14 | N[C@@H](CC(=O)O)C(=O)O [L-Aspartic acid] | 57.2%
15 | CC12CC3CC(C)(C1)CC(N)(C3)C2 [Memantine hydrochloride] | 57.4%
16 | S=c1[nH]c(-c2ccccc2)cn1-c1ccccc1 | 44.4%
17 | O=C(O)Cc1c[nH]c2ccc(O)cc12 [5-Hydroxyindolacetic acid] | 41.2%
18 | Cc1ccccc1C(OCCN(C)C)c1ccccc1 (centres undefined) [Orphenadrine hydrochloride] | 58.2%
19 | Cc1ccccc1N1C(=O)c2cc(S(N)(=O)=O)c(Cl)cc2NC1C (centres undefined) [Metolazone] | 60.8% and 68%
20 | N[C@H](C(=O)O)c1cc(O)cc(O)c1 [(S)-3,5-Dihydroxyphenylglycine] | 38.4%

Random excerpt: two entries already listed, in no set order.
Row | Compound | growth inhibition
12 | CNCCC(Oc1ccc(C(F)(F)F)cc1)c1ccccc1 (centres undefined) [Fluoxetine hydrochloride] | 19.3%
10 | CC[N+](C)(C)c1cccc(O)c1 [Edrophonium chloride] | 58.5%

Carrying on.

Row | Compound | growth inhibition
21 | Cn1cnc([N+](=O)[O-])c1Sc1ncnc2[nH]cnc12 [Azathioprine] | 61.4%
22 | Oc1ncnc2[nH]ncc12 [Allopurinol] | 70.6%
23 | CC(C)COC(=O)OCN1C(=O)CN(CCN2CC(=O)N(COC(=O)OCC(C)C)C(=O)C2)CC1=O [Sobuzoxane] | 64.2%
24 | Brc1c(NC2=NCCN2)ccc2nccnc12 | 74.9%
25 | O=C1CC2(CCCC2)CC(=O)N1CCCCN1CCN(c2ncccn2)CC1 [Buspirone hydrochloride] | 49.4%
26 | CC(C(=O)O)c1ccc(CC2CCCC2=O)cc1 (centres undefined) [loxoprofen] | 64.8%
27 | COc1ccc(-c2cc(=O)c3c(O)c(OC)c(OC)cc3o2)cc1O [Eupatorin] | 41.7%
28 | NCCNS(=O)(=O)c1cccc2c(Cl)cccc12 [A3 hydrochloride] | 58.7%
29 | CC(C)[C@H](N)C(=O)OCC(CO)OCn1cnc2c(=O)[nH]c(N)nc21 (some centres undefined) [Valganciclovir hydrochloride hydrate] | 54.8%
30 | Nn1nnc2ccccc21 [1-Aminobenzotriazole] | 67.2%
31 | O=c1[nH]c2cc(Cl)ccc2c(O)c1-c1cccc(Oc2ccccc2)c1 | 43%
32 | c1ccc(C(NCc2cccnc2)(c2ccccc2)c2ccccc2)cc1 | 52%
33 | CN(C)CCCN1c2ccccc2Sc2ccc(Cl)cc21 [Chlorpromazine hydrochloride] | 57.5%
34 | CC(=O)O[C@]1(C(C)=O)CC[C@H]2[C@@H]3C=C(Cl)C4=CC(=O)[C@@H]5C[C@@H]5[C@]4(C)[C@H]3CC[C@@]21C [Cyproterone acetate] | 40%
35 | COC(=O)C1=C(C)NC(C)=C(C(=O)OC)C1c1cccc(NC(=O)NCCCN2CCC(c3cccc(OC)c3)CC2)c1 | 60.2%
36 | CCN(CC)C(=O)c1ccc(O)c(OC)c1 [Vanillic acid diethylamide] | 63.4%
37 | CN(CCOc1ccc(NS(C)(=O)=O)cc1)CCc1ccc(NS(C)(=O)=O)cc1 [Dofetilide] | 51%
38 | CC[C@H](NC(=O)c1c(C)c(-c2ccccc2)nc2ccccc12)c1ccccc1 | 59.5%
39 | CCCCC1C(=O)N(c2ccccc2)N(c2ccccc2)C1=O [Phenylbutazone] | 36.3%
